Structures are written as SMILES. Structures can show the parent of a compound that is named as a salt. ± gives the standard deviation of the averaged measurements. The list shows a part of the results. This is a noisy data set.

In this assay the test system is Salmonella enterica serovar Typhimurium ST313 D23580. Description: normalized bacterial growth (OD600 20 h minus 0 h, interquartile-mean normalized) (fraction of plate interquartile mean); higher = more bacterial growth (less inhibition). The settings on record: LPM (pH 5.8, low phosphate, low Mg2+), concentration: 10 µM, temperature: 37 °C.
`CC(Cc1ccc(OCC(=O)O)cc1)NCC(O)c1cccc(Cl)c1` (configuration not stated) displayed a normalized bacterial growth of 1.07. For the molecule `CC1=CC(=O)c2c(O)cccc2C1=O`, the normalized bacterial growth is 0.66.

The molecule `CC(C)N(CCC(C(N)=O)(c1ccccc1)c1ccccn1)C(C)C` (configuration not stated) [Disopyramide] yielded a normalized bacterial growth of 1.02. Regarding `CC(C)N(CCC(C(N)=O)(c1ccccc1)c1ccccn1)C(C)C` (configuration not stated) [Disopyramide phosphate], the normalized bacterial growth stood at 1.08. The same measure for `COP(N)(=O)SC` (configuration not stated): 1.1. The same measure for `CC[C@@]1(O)C[C@H](O[C@H]2C[C@H](N(C)C)[C@H](O)[C@H](C)O2)c2c(cc3c(c2O)C(=O)c2c(O)cccc2C3=O)[C@H]1C(=O)OC`: 0.781. Next, `N=C(N)NN` [Aminoguanidine hemisulfate]: 1.22; `N=C(N)NN` [Aminoguanidine hydrochloride]: 1.03. For the molecule `C[C@H](N)[C@H](O)c1ccc(O)c(O)c1`, the normalized bacterial growth is 1.2.

Regarding `Clc1ccc(C2CC3CCC2N3)cn1` (configuration not stated), the normalized bacterial growth was 1.12.

Take `COc1cccc(C2(O)CCCCC2CN(C)C)c1` (configuration not stated): the normalized bacterial growth turned out to be 0.907.

Consider `CC(CCc1ccccc1)NC(C)C(O)c1ccc(O)cc1` (configuration not stated) [Nylidrin hydrochloride], for which the normalized bacterial growth turned out to be 1.1. The molecule `Cc1c(C(=O)c2cccc3ccccc23)c2cccc3c2n1[C@H](CN1CCOCC1)CO3` ["( R)-(+)-WIN 55,212-2 mesylate"] returned a normalized bacterial growth of 0.952.

In the case of `Cc1cc(OC(=O)N2CCCCC2)c(C(C)C)cc1[N+](C)(C)C`, the normalized bacterial growth was determined as 1. `C=C(C)c1cc2cc(C(C)=O)c(O)cc2o1` displayed a normalized bacterial growth of 0.982.

Molecule `c1ccc2nc(N3CCNCC3)ccc2c1` [Quipazine dimaleate] showed a normalized bacterial growth of 1.5.

Consider `c1ccc2nc(N3CCNCC3)ccc2c1`, for which the normalized bacterial growth stood at 1.03. Next, `C[N+](C)(C)CCCCCCCCCC[N+](C)(C)C` [Decamethonium dibromide]: 1.24. Next, `CC(C)OC(=O)Nc1cccc(Cl)c1`: 1.12; `C[N+]1(C)[C@@H]2CC[C@H]1C[C@@H](OC(=O)C(CO)c1ccccc1)C2` (some centres not stated) [Atropine methyl bromide]: 1.02; `C[N+]1(C)[C@@H]2CC[C@H]1C[C@@H](OC(=O)C(CO)c1ccccc1)C2` (some centres not stated) [Methylatropine nitrate]: 1.03. The molecule `C[N+]1(C)[C@@H]2CC[C@H]1C[C@@H](OC(=O)C(CO)c1ccccc1)C2` (some centres not stated) [Atropine methyl nitrate] returned a normalized bacterial growth of 1.09. Next, `C/C=C1/C[C@@H](C)[C@@](C)(O)C(=O)OCC2=CCN3CC[C@@H](OC1=O)[C@@H]23`: 0.818. In turn, `O=C1NCN(c2ccccc2)C12CCN(CC1COc3ccccc3O1)CC2` (configuration not stated) [Spiroxatrine] showed a normalized bacterial growth of 0.957. With `CN1C[C@H](C(=O)N[C@]2(C)O[C@@]3(O)[C@@H]4CCCN4C(=O)[C@H](Cc4ccccc4)N3C2=O)C[C@@H]2c3cccc4[nH]cc(c34)C[C@H]21` [Dihydroergotamine tartrate], the normalized bacterial growth stood at 0.963. The same measure for `CN1C[C@H](C(=O)N[C@]2(C)O[C@@]3(O)[C@@H]4CCCN4C(=O)[C@H](Cc4ccccc4)N3C2=O)C[C@@H]2c3cccc4[nH]cc(c34)C[C@H]21`: 0.918; for `CN1C[C@H](C(=O)N[C@]2(C)O[C@@]3(O)[C@@H]4CCCN4C(=O)[C@H](Cc4ccccc4)N3C2=O)C[C@@H]2c3cccc4[nH]cc(c34)C[C@H]21` [Dihydroergotamine methanesulfonate]: 1.37. For the molecule `CC1C2Cc3ccc(O)cc3C1(C)CCN2CC1CC1` (single isomer, unassigned; (+)) [(+)-Cyclazocine], the normalized bacterial growth was 0.987. Next, `CC(C)=CCC[C@]1(C)C=Cc2c(O)c3c(c(CC=C(C)C)c2O1)O[C@]12C(=C[C@@H]4C[C@H]1C(C)(C)O[C@@]2(C/C=C(/C)C(=O)O)C4=O)C3=O`: 1 ± 0.096. The same measure for `NCCc1cc(O)c(O)cc1O`: 0.735; for `C#C[C@]1(O)CC[C@H]2[C@@H]3CCC4=Cc5nc6nc7ccccc7n6cc5C[C@]4(C)[C@H]3CC[C@@]21C`: 1.27.

`C=CCN(C1=NCCN1)c1c(Cl)cccc1Cl` [Alinidine] returned a normalized bacterial growth of 0.943. Turning to `CC[C@@]1(O)C(=O)OCc2c1cc1n(c2=O)Cc2cc3ccccc3nc2-1`, the normalized bacterial growth was found to be 0.888. `CC[C@@]1(O)C(=O)OCc2c1cc1n(c2=O)Cc2cc3ccccc3nc2-1` [(S)-(+)-Camptothecin]: the normalized bacterial growth turned out to be 0.951.

For the molecule `N#Cc1nn(-c2c(Cl)cc(C(F)(F)F)cc2Cl)c(N)c1[S+]([O-])C(F)(F)F` (configuration not stated), the normalized bacterial growth worked out at 0.824. The same measure for `O=C1C[C@@H]2OCC=C3CN4CC[C@]56c7ccccc7N1[C@H]5[C@H]2[C@H]3C[C@H]46`: 1.07 ± 0.058; for `CCCCCCCCCc1ccc(O)cc1`: 1.16; for `C[C@H]1C/C=C/[C@H]2[C@@H]3O[C@]3(C)[C@@H](C)[C@H]3[C@H](Cc4ccccc4)NC(=O)[C@]32OC(=O)O/C=C/[C@@](C)(O)C1=O`: 0.89.

`COc1ccc2[nH]cc(CCN)c2c1` [O-Methylserotonin hydrochloride] returned a normalized bacterial growth of 1.13.

Molecule `Cc1ncc(CNC(=O)N(CCCl)N=O)c(N)n1` [Nimustine hydrochloride] registered a normalized bacterial growth of 1.16. Next, `CCC12C=CCN3CC[C@@]4(c5ccc(OC)cc5N(C)[C@H]4[C@@](O)(C(=O)OC)[C@@H]1OC(C)=O)[C@@H]32` (some centres not stated): 0.784 ± 0.045. The same measure for `C[C@H]1CCC/C=C/[C@@H]2C[C@H](O)C[C@H]2[C@H](O)/C=C/C(=O)O1`: 0.948. The same measure for `CN1CCCCC1c1ccc(-c2cccnc2)nc1` (configuration not stated): 1.1. Take `C[C@@H]1C[C@H]2CC[C@H](O2)[C@H](C)C(=O)O[C@@H](C)C[C@@H]2CC[C@@H](O2)[C@@H](C)C(=O)O[C@H](C)C[C@H]2CC[C@@H](O2)[C@H](C)C(=O)O[C@@H](C)C[C@@H]2CC[C@@H](O2)[C@@H](C)C(=O)O1`: the normalized bacterial growth was found to be 0.869. On to `CN1C[C@@H](NS(=O)(=O)N(C)C)C[C@@H]2c3cccc4c3c(cn4C)C[C@H]21` [Mesulergine hydrochloride], for which the normalized bacterial growth is 0.905.

Molecule `C[N+](C)(C)CC#CCOC(=O)Nc1cccc(Cl)c1` yielded a normalized bacterial growth of 1.17. With `CC[C@@H](C)C(=O)O[C@H]1[C@H](O)[C@H]2[C@@H](CN3C[C@@H](C)CC[C@H]3[C@@]2(C)O)[C@@H]2C[C@]34O[C@]5(O)[C@@H](OC(=O)[C@](C)(O)[C@@H](C)O)CC[C@@]3(C)[C@@H]5[C@@H](OC(C)=O)[C@@H](OC(C)=O)[C@H]4[C@@]21O` (stereo in doubt), the normalized bacterial growth came to 1.07. The same measure for `CC1=C(O)C(=O)C=C2C1=CC=C1[C@@]2(C)CC[C@@]2(C)[C@@H]3C[C@](C)(C(=O)O)CC[C@]3(C)CC[C@]12C`: 1.05. With `CC(=O)Oc1ccc(/C=C/c2cc(OC(C)=O)cc(OC(C)=O)c2)cc1`, the normalized bacterial growth came to 0.979. The same measure for `N#C/C(=C\c1ccc(O)cc1)C(=O)O` [alpha-CYANO-4-HYDROXYCINNAMIC ACID]: 1.03; for `Oc1cccc2cccnc12`: 0.421; for `N.N.[Cl][Pt][Cl]`: 1.11.

`N.N.[Cl][Pt][Cl]` [Cisplatin]: the normalized bacterial growth is 1.

With `CCCN1C[C@H](CSC)C[C@@H]2c3cccc4[nH]cc(c34)C[C@H]21` [Pergolide methanesulfonate], the normalized bacterial growth is 0.826.

With `CCCCc1ccc(C(=O)O)nc1` [Fusaric acid], the normalized bacterial growth was found to be 0.247. Next, `CC(C)N1C(=O)c2ccccc2NS1(=O)=O`: 1.01. Next, `Oc1ccc2c3c1O[C@H]1c4[nH]c5c(c4C[C@@]4(O)[C@@H](C2)N(CC2CC2)CC[C@]314)C[C@@]1(O)[C@H]2Cc3ccc(O)c4c3[C@@]1(CCN2CC1CC1)[C@H]5O4` [nor-Binaltorphimine dihydrochloride]: 0.706; `CCCCCCCCCCCCCC(=O)O[C@@H]1[C@@H](C)[C@@]2(O)[C@@H](C=C(CO)C[C@]3(O)C(=O)C(C)=C[C@@H]23)[C@@H]2C(C)(C)[C@]12OC(C)=O`: 1.08; `COc1ccc(C(=O)N2CCCC2=O)cc1` [Aniracetam]: 1.07. In the case of `COc1nc(NC(C)C)nc(NC(C)C)n1`, the normalized bacterial growth came out at 0.881.

For `C=CCN1CCc2cccc3c2[C@H]1Cc1ccc(O)c(O)c1-3` [R(-)-N-Allylnorapomorphine hydrobromide], the normalized bacterial growth worked out at 0.514. Regarding `Cc1[nH]c2ccc(O)cc2c1CCN` [2-Methyl-5-hydroxytryptamine maleate], the normalized bacterial growth came out at 1.06. Next, `CCS(=O)(=O)Nc1cccc(C(=C2CCCCC2)c2cnc[nH]2)c1`: 0.916; `NCC(O)c1cc(O)c(O)cc1F` (configuration not stated) [6-Fluoronorepinephrine hydrochloride]: 0.65.

Molecule `CC[C@@H](C(N)=O)N1CCCC1=O` [Levetiracetam] had a normalized bacterial growth of 1.07. As to `COC(=O)[C@@H]1C[C@H](OC(C)=O)C(=O)[C@H]2[C@@]1(C)CC[C@H]1C(=O)O[C@H](c3ccoc3)C[C@]21C`, the normalized bacterial growth is 0.989. `O=C(O)CCCc1ccc(N(CCCl)CCCl)cc1` [Chlorambucil] registered a normalized bacterial growth of 0.902. Turning to `CC[C@@]1(O)C[C@H](O)c2c(cc3c(c2O)C(=O)c2c(O)ccc(O)c2C3=O)[C@H]1C(=O)OC`, the normalized bacterial growth was found to be 0.916. The same measure for `CC(C)Oc1cccnc1N(C)C1CCN(Cc2ccc(I)cc2)CC1` [RBI 257 maleate salt]: 0.9. Next, `Nc1ccncc1` [4-Aminopyridine]: 1.38; `COc1ccc(-n2nc(C(F)(F)F)cc2-c2ccc(Cl)cc2)cc1`: 0.773; `O=C(O)CNCP(=O)(O)O`: 0.928.

Molecule `C[N+]1(C)CCOC(O)(c2ccc(-c3ccc(C4(O)C[N+](C)(C)CCO4)cc3)cc2)C1` (configuration not stated) [Hemicholinium-3] came in with a normalized bacterial growth of 0.877. The same measure for `CN(C)Cc1c[nH]c2ccccc12`: 1.11; for `CO[C@H]1CC=C2CCN3CCC4=C(CC(=O)OC4)[C@]23C1` [Dihydro-beta-erythroidine hydrobromide]: 0.995; for `CC[C@H](C)[C@H]1O[C@]2(C=C[C@@H]1C)C[C@@H]1C[C@@H](C/C=C(\C)[C@@H](O[C@H]3C[C@H](OC)[C@@H](O[C@H]4C[C@H](OC)[C@@H](O)[C@H](C)O4)[C@H](C)O3)[C@@H](C)/C=C/C=C3\CO[C@@H]4[C@H](O)C(C)=C[C@@H](C(=O)O1)[C@]34O)O2.CO[C@H]1C[C@H](O[C@H]2[C@H](C)O[C@@H](O[C@@H]3/C(C)=C/C[C@@H]4C[C@@H](C[C@]5(C=C[C@H](C)[C@@H](C(C)C)O5)O4)OC(=O)[C@@H]4C=C(C)[C@@H](O)[C@H]5OC/C(=C\C=C\[C@@H]3C)[C@]54O)C[C@@H]2OC)O[C@@H](C)[C@@H]1O`: 1.37. Next, `CC[C@H](C)[C@H]1O[C@]2(C=C[C@@H]1C)C[C@@H]1C[C@@H](C/C=C(\C)[C@@H](O[C@H]3C[C@H](OC)[C@@H](O[C@H]4C[C@H](OC)[C@@H](O)[C@H](C)O4)[C@H](C)O3)[C@@H](C)/C=C/C=C3\CO[C@@H]4[C@H](O)C(C)=C[C@@H](C(=O)O1)[C@]34O)O2.CO[C@H]1C[C@H](O[C@H]2[C@H](C)O[C@@H](O[C@@H]3/C(C)=C/C[C@@H]4C[C@@H](C[C@]5(C=C[C@H](C)[C@@H](C(C)C)O5)O4)OC(=O)[C@@H]4C=C(C)[C@@H](O)[C@H]5OC/C(=C\C=C\[C@@H]3C)[C@]54O)C[C@@H]2OC)O[C@@H](C)[C@@H]1O` [Avermectin B1]: 1.25.

For the origin of these results see the supplement of paper PMC10398353.
